The subject of assay [1] is MCF-7 human breast cancer cell line. The experiment in a line: Cell Viability Assay (MCF7), PrestoBlue. The settings on record: read-out: MCF7 IC50, MCF-7 cells, three days after drug treatment.
For the next assay, the target named is Rac1 protein (Homo sapiens, UniProt P63000). The experiment in a line: Fluorescence Polarization Assay (Rac1 FP). The note with it: read-out: Rac1 FP IC50; 125 nM his-tagged Rac1, 12.5 nM Bodipy-TR GTPγS, 30 minutes at 37° C. For orientation: In fluorescence polarisation assays a small probe gives low polarisation when free and higher when bound to something large.

Assay [2] addresses His-Rac1 / GST-PBD (PAK Binding Domain) (Homo sapiens, UniProt P63000). The experiment in a line: Rac Activation AlphaScreen Assay (Rac1 AS). The note with it: 500 nM GTPγS, 37° C., 1 hour, 'positive' = signal generated was higher than the positive control; for IC50: read-out: Rac1 AS IC50.

The structures given here were assigned with low confidence; some may be wrong.

As for `O=C(C1CCOCC1)N1CCN(Cc2cn(CCCCCCSc3ccnc4cc(C(F)(F)F)ccc34)nn2)CC1`, the figures for the half-inhibitory concentration (IC50) (in assay [1]; at Rac1 protein; in assay [2]) were 37.8 µM, 2.02 µM and 28.2 µM, respectively.
As for `CC(=O)N1CCC(Cc2cn(CCCCCCSc3ccnc4cc(C(F)(F)F)ccc34)nn2)CC1`, the half-inhibitory concentration (IC50) in assay [1] was determined as 19.5 µM; at Rac1 protein it was 1.27 µM; in assay [2] it was 23.1 µM.
Regarding `Clc1ccc2c(SCCCCCCn3cc(CN4CCOCC4)nn3)ccnc2c1`, the IC50 in assay [1] was found to be 9.2 µM; at Rac1 protein, 2.57 µM. Besides, the “Rac1 AS IC50(uM)” value in assay [2] was “positive”.
On to `COc1ccc(N(C)Cc2cn(CCCCCCSc3ccnc4cc(C(F)(F)F)ccc34)cn2)cc1`, for which the values for the IC50 (in assay [1]; on Rac1 protein; in assay [2]) were 6.7 µM, 0.36 µM and 6.5 µM, respectively.

As a reminder, the IC50 is the concentration that gives 50% inhibition.

The record behind these values is patent US10472352B2, “Rac inhibitors” (Geneyus LLC, priority 2017, dated 2019).
